Values quoted from earlier work as cited in article PMC10886162, “Synthesis of Novel Artemisinin, Ciprofloxacin, and Norfloxacin Hybrids with Potent Antiplasmodial Activity” (Antibiotics, 2024).

System: CQ-resistant P. falciparum strain FcB1
Conditions: earlier work of the group; cited from earlier work

SMILES	times more potent than FSM
CCOP(=O)(CCCN(O)C(=O)CCC(=O)N(CCCCNC(=O)CCC1OC2OC3(C)CCC4C(C)CCC(C1C)C24OO3)CCCNC(=O)CCC1OC2OC3(C)CCC4C(C)CCC(C1C)C24OO3)OCC (centres unmarked) [conjugate 8]	41.5
CCOP(=O)(CCCN(O)C(=O)CCC(=O)N(CCCCNC(=O)CCC1OC2OC3(C)CCC4C(C)CCC(C1C)C24OO3)CCCCNC(=O)CCC1OC2OC3(C)CCC4C(C)CCC(C1C)C24OO3)OCC (centres unmarked) [conjugate 9]	23.1
